# PubChem BioAssay AID1224830 | NIAID – 2016
# Test: 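Genes whose knock-down alters the TNF-alpha reporter response to LPS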 (primary screen)
# Cell system: human THP-1 monocytic leukaemia cells, TNF dual-luciferase reporter clone, PMA-differentiated to macrophage-like cells
# Reagents: siRNA pool against human genes, 50 nM
# Time to read-out: LPS for 4 h, given about 3 days after siRNA transfection
# Challenge: bacterial LPS (TLR4 ligand), 10 ng/ml
# Measurement: 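TNF firefly reporter luminescence divided by renilla, normalised to the plate median, then turned into a robust z-score for each replicate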
# Reading the numbers: TNF reporter robust z-score: higher = stronger TNF reporter response to LPS
# Call rule: 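Each well counts as active if its z-score is over 2.8 or under -1.5; controls are left without a call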
# Shown is one part, drawn at random, of about 18,000 reagents tested. About 2,900 of all reagents (16%) were called active. 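Calls are made per well; low scores hint the gene aids the LPS response, high scores that it dampens it.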 The numbers tell different reagents against one gene apart. Repeated entries: four replicate wells of each siRNA pool.
Target gene,reagent no.,TNF reporter robust z-score,call
HTR2C (GeneID 3358),1,-0.02,inactive
HTR2C (GeneID 3358),1,0.14,inactive
HTR2C (GeneID 3358),1,-0.04,inactive
HTR2C (GeneID 3358),1,-0.06,inactive
FILIP1L (GeneID 11259),1,3.66,active
FILIP1L (GeneID 11259),1,2.77,inactive
FILIP1L (GeneID 11259),1,2.2,inactive
FILIP1L (GeneID 11259),1,3.23,active
RASSF9 (GeneID 9182),1,0.08,inactive
RASSF9 (GeneID 9182),1,0.67,inactive
RASSF9 (GeneID 9182),1,0.73,inactive
RASSF9 (GeneID 9182),1,0.85,inactive
FAABTP (GeneID 55266),1,1.51,inactive
FAABTP (GeneID 55266),1,1.01,inactive
FAABTP (GeneID 55266),1,0.71,inactive
FAABTP (GeneID 55266),1,-0.2,inactive
ATG14 (GeneID 22863),1,-0.48,inactive
ATG14 (GeneID 22863),1,0.47,inactive
ATG14 (GeneID 22863),1,-1.45,inactive
ATG14 (GeneID 22863),1,0.03,inactive
ANKFY1 (GeneID 51479),1,0.2,inactive
ANKFY1 (GeneID 51479),1,-0.49,inactive
ANKFY1 (GeneID 51479),1,-0.92,inactive
ANKFY1 (GeneID 51479),1,0.09,inactive
USF1 (GeneID 7391),1,0.57,inactive
USF1 (GeneID 7391),1,1.01,inactive
USF1 (GeneID 7391),1,0.47,inactive
USF1 (GeneID 7391),1,0.04,inactive
KRT6A (GeneID 3853),1,1.14,inactive
KRT6A (GeneID 3853),1,0.75,inactive
KRT6A (GeneID 3853),1,0.1,inactive
KRT6A (GeneID 3853),1,0.6,inactive
FBXW10 (GeneID 10517),1,-1.65,active
FBXW10 (GeneID 10517),1,-1.8,active
FBXW10 (GeneID 10517),1,-0.9,inactive
FBXW10 (GeneID 10517),1,-0.49,inactive
KLK15 (GeneID 55554),1,-1.08,inactive
KLK15 (GeneID 55554),1,-0.75,inactive
KLK15 (GeneID 55554),1,0.48,inactive
KLK15 (GeneID 55554),1,-1.02,inactive
AHSP (GeneID 51327),1,0.05,inactive
AHSP (GeneID 51327),1,0.59,inactive
AHSP (GeneID 51327),1,0.92,inactive
AHSP (GeneID 51327),1,0.23,inactive

Next part, starting with the last 10 of the part before.
Target gene,reagent no.,TNF reporter robust z-score,call
FBXW10 (GeneID 10517),1,-0.9,inactive
FBXW10 (GeneID 10517),1,-0.49,inactive
KLK15 (GeneID 55554),1,-1.08,inactive
KLK15 (GeneID 55554),1,-0.75,inactive
KLK15 (GeneID 55554),1,0.48,inactive
KLK15 (GeneID 55554),1,-1.02,inactive
AHSP (GeneID 51327),1,0.05,inactive
AHSP (GeneID 51327),1,0.59,inactive
AHSP (GeneID 51327),1,0.92,inactive
AHSP (GeneID 51327),1,0.23,inactive
ZCCHC2 (GeneID 54877),1,1.12,inactive
ZCCHC2 (GeneID 54877),1,1.44,inactive
ZCCHC2 (GeneID 54877),1,0.66,inactive
ZCCHC2 (GeneID 54877),1,1.04,inactive
SLC17A6 (GeneID 57084),1,-1.27,inactive
SLC17A6 (GeneID 57084),1,-0.76,inactive
SLC17A6 (GeneID 57084),1,-0.58,inactive
SLC17A6 (GeneID 57084),1,-1.09,inactive
TBKBP1 (GeneID 9755),1,-0.3,inactive
TBKBP1 (GeneID 9755),1,0.14,inactive
TBKBP1 (GeneID 9755),1,-0.58,inactive
TBKBP1 (GeneID 9755),1,-0.27,inactive
AMZ1 (GeneID 155185),1,0.15,inactive
AMZ1 (GeneID 155185),1,1.08,inactive
AMZ1 (GeneID 155185),1,-0.69,inactive
AMZ1 (GeneID 155185),1,-0.25,inactive
CCDC157 (GeneID 550631),1,0.52,inactive
CCDC157 (GeneID 550631),1,-0.12,inactive
CCDC157 (GeneID 550631),1,-0.83,inactive
CCDC157 (GeneID 550631),1,0.43,inactive
NSMF (GeneID 26012),1,-1.38,inactive
NSMF (GeneID 26012),1,-0.99,inactive
NSMF (GeneID 26012),1,-1.15,inactive
NSMF (GeneID 26012),1,-1.2,inactive
SNTB1 (GeneID 6641),1,0.39,inactive
SNTB1 (GeneID 6641),1,-0.76,inactive
SNTB1 (GeneID 6641),1,0.9,inactive
SNTB1 (GeneID 6641),1,0.58,inactive
COL15A1 (GeneID 1306),1,-0.41,inactive
COL15A1 (GeneID 1306),1,-0.65,inactive
COL15A1 (GeneID 1306),1,0.37,inactive
COL15A1 (GeneID 1306),1,-0.27,inactive
RAB2A (GeneID 5862),1,-0.87,inactive
RAB2A (GeneID 5862),1,-0.74,inactive
RAB2A (GeneID 5862),1,-0.9,inactive
RAB2A (GeneID 5862),1,-0.88,inactive
RFPL3 (GeneID 10738),1,0.53,inactive
RFPL3 (GeneID 10738),1,-1.19,inactive
RFPL3 (GeneID 10738),1,0.16,inactive
RFPL3 (GeneID 10738),1,0.97,inactive
BARHL1 (GeneID 56751),1,0.19,inactive
BARHL1 (GeneID 56751),1,-0.85,inactive
BARHL1 (GeneID 56751),1,-0.28,inactive
BARHL1 (GeneID 56751),1,-0.64,inactive
OR52N1 (GeneID 79473),1,-0.55,inactive
OR52N1 (GeneID 79473),1,-0.78,inactive
OR52N1 (GeneID 79473),1,-0.89,inactive
OR52N1 (GeneID 79473),1,-0.15,inactive
HCG27 (GeneID 253018),1,-0.47,inactive
HCG27 (GeneID 253018),1,0.8,inactive
HCG27 (GeneID 253018),1,0.7,inactive
HCG27 (GeneID 253018),1,0.47,inactive
GRM3 (GeneID 2913),1,2.97,active
GRM3 (GeneID 2913),1,-0.58,inactive
GRM3 (GeneID 2913),1,1.34,inactive
GRM3 (GeneID 2913),1,3.14,active
DYRK2 (GeneID 8445),1,0.52,inactive
DYRK2 (GeneID 8445),1,0.16,inactive
DYRK2 (GeneID 8445),1,0.36,inactive
DYRK2 (GeneID 8445),1,1.45,inactive
SZT2 (GeneID 23334),1,0.03,inactive
SZT2 (GeneID 23334),1,0.51,inactive
SZT2 (GeneID 23334),1,0.15,inactive
SZT2 (GeneID 23334),1,0.1,inactive
SZT2 (GeneID 23334),2,-0.26,inactive
SZT2 (GeneID 23334),2,-1.01,inactive
SZT2 (GeneID 23334),2,-0.21,inactive
